{"sequences": {"note": "By UniProt entry, the sequences of proteins in these tests, tags left out.", "UniProt P02533": "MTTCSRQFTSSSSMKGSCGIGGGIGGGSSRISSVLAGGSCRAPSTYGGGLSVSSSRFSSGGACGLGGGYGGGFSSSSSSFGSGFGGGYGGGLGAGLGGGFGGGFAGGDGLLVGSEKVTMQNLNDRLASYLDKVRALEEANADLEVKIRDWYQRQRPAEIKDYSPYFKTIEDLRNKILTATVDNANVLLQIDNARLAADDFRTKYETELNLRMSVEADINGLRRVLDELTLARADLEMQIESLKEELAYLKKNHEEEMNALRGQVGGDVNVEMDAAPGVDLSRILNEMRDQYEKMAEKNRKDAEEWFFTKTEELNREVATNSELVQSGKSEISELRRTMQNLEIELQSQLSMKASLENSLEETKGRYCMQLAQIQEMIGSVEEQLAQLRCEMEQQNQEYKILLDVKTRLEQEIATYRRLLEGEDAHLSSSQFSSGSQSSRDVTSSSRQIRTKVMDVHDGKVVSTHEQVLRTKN"}, "source": "patent US20220127341A1", "about": "(HUDSON INSTITUTE OF MEDICAL RESEARCH, published 2022)", "binders": {"B1": {"name": "monoclonal anti-KRT14 antibody AN-17 (antibody, V domains shown)", "VH": "QVQLKESGPGLVAPSQSLSITCTVSGFSLSRYSVHWVRQPPGKGLEWLGMIWGGGSTDYNSALKSRLSISKDNSKSQVFLKMNSLQTDDTAMYYCARKDYGYSYFDYWGQGTTLTVSS", "VL": "DVLMTQTPLSLPVSLGDQASISCRSSQSIVHSNGNTYLEWYLQKPGQSPKLLIYKVSNRFSGVPDRFSGSGSGTDFTLKISRVEAEDLGVYYCFQGSHVPFTFGSGTKLEIKR", "notes": "the isotype-matched control used is mouse IgG1 kappa; Some assays used it conjugated to Alexa Fluor 488 or Alexa-647; also called mAb AN-17; mAb AN17"}}, "key": {"[1]": {"biological_target": "full-length recombinant KRT14 protein (UniProt P02533)", "assay": "western blot"}, "[2]": {"biological_target": "full-length recombinant KRT14 protein (UniProt P02533)", "assay": "western blot of 1 µg recombinant KRT14; mAb at 1:1000, 1:5000 and 1:10,000"}}, "note": "These are yes or no findings as the source states them, for the method shown. Some entries that bind do so weakly or less than the wild type."}
{"binder": "B1", "values": [{"measurement": "binding", "setting": "[1]", "value": "binds"}, {"measurement": "binding", "setting": "[2]", "value": "binds"}]}
